Source: PubChem BioAssay AID504467 (National Center for Advancing Translational Sciences (NCATS), 2011)
About 7,700 (2.3%) of roughly 330,000 compounds were called active. Inconclusive results, whose numbers are uncertain, are shown with a selection of clear calls. Calls come from the whole dose curve; as a rule, active = well fitted inhibition curve with a large enough effect; inconclusive = small, poorly fitted or top-dose-only effect, or effect the other way; inactive = flat fitted curve, though single readings scatter. Potencies of inconclusive entries are doubtful fits and often do not repeat.

Assay: qHTS screen for small molecules that inhibit ELG1-dependent DNA repair in human embryonic kidney (HEK293T) cells expressing luciferase-tagged ELG1; note: nearly all actives have a fitted effect of over 55% in size
Conditions: HEK293T ELG1-luciferase reporter, luminescence, 16 h, DNA damage induced by 5-fluorouridine; series mostly up to 46.1 µM
In short: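 Step one: seed 2,000 cells per well. Step two: pin-transfer compound or DMSO alongside 5-fluorouridine. Step three: incubate 16 hr, 37 °C, 5% CO2. Step four: add ONE-Glo, wait 30 min, read luminescence.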
Potency is the fitted concentration of half-maximal effect.

SMILES	Potency
CCCCCCN(C(=O)CCCN1C(=O)NC(c2ccc([N+](=O)[O-])cc2)C(C(=O)OCc2ccccc2)=C1C)C(C)C(=O)NCCCC (centres undefined)	inconclusive: 7.3 µM [inhibitor, partial curve]
CC(=O)NCCCc1c[nH]c2ccc(Cl)cc12	inconclusive: 18.4 µM [activator, partial curve, poor fit]
COc1ccccc1NC(=O)Cc1csc(NC(=O)c2ccccc2)n1	inconclusive: 16.4 µM [inhibitor, single point]
Cc1ccc(S(=O)(=O)Oc2ccccc2/C=N/NC(=O)c2c(Cl)cnn2C)cc1	inconclusive: 29.1 µM [inhibitor, single point]
COc1cc(NS(=O)(=O)c2ccc3[nH]c(=O)oc3c2)cc(OC)c1	inconclusive: 29.1 µM [inhibitor, single point]
CCN(CC)c1ncnc2c1cnn2C	inactive
CCn1c(=NC(=O)COc2ccccc2)sc2cccc(F)c21	inconclusive: 23.1 µM [activator, partial curve, poor fit]
CC(C)C(C(=O)O)N1C(=O)/C(=C/c2cccn2C)SC1=S (centres undefined)	inactive
COc1cccc(NC(=O)CSc2ncnc3c2cnn3Cc2ccccc2)c1	inconclusive: 25.9 µM [inhibitor, single point]
COc1ccc(NC(=O)CN(C)C(=O)Cc2coc3cc(C)c(C)cc23)cc1	inconclusive: 7.3 µM [inhibitor, single point]
COC(=O)[C@]1(Cc2ccccc2)N[C@H](CN(C)S(=O)(=O)c2ccc(-c3ccccc3)cc2)[C@@H]2C(=O)N(C)C(=O)[C@@H]21	inconclusive: 23.1 µM [inhibitor, partial curve]
FC(F)c1nc2ccccc2[nH]1	inactive
COCCN(C(=O)Nc1ccc(OC)cc1OC)C1CCN(C(C)=O)CC1	inactive
O=C(NNC(=O)c1ccc(NC(=O)c2ccccc2)cc1)Nc1ccccc1	inconclusive: 29.1 µM [activator, partial curve, poor fit]
COc1cc(C=C2C(=O)OC(C)(C)OC2=O)ccc1OCC(=O)Nc1ccccc1	inconclusive: 16.4 µM [activator, partial curve]
O=C(CSc1ncccn1)c1ccccc1Br	inconclusive: 23.1 µM [activator, single point]
O=C(NNC(=O)c1ccc(F)cc1F)c1ccc2c(c1)OCO2	inconclusive: 16.4 µM [activator, partial curve]
CCOc1ccc(S(=O)(=O)n2nc(C)cc2C)c2ccccc12	inactive
O=S(=O)(Nc1nc2ccccc2[nH]1)c1ccccc1	inconclusive: 29.1 µM [inhibitor, single point]
CCOC(=O)c1ccccc1NS(=O)(=O)c1ccc(OCC)cc1	inconclusive: 5.17 µM [inhibitor, full curve]
COCCOc1ccc(C(F)(F)F)cc1NC(=O)c1ccc(C(F)(F)F)cc1	inconclusive: 32.6 µM [activator, partial curve, poor fit]
COc1cccc(-c2nc(CSCC(=O)NCC3CCCO3)c(C)o2)c1 (centres undefined)	inconclusive: 29.1 µM [inhibitor, single point]
O=C(/C=C/c1ccc(F)cc1)NCCC1=CCCCC1	inconclusive: 18.4 µM [activator, partial curve]

SMILES	Potency
Cc1cc(/C=C(\C#N)C(=O)Nc2ccc(F)cc2)c(C)n1-c1ccc(N2CCOCC2)c([N+](=O)[O-])c1	inconclusive: 6.51 µM [inhibitor, partial curve]
COc1ccc2nc(NC(=O)c3ccco3)sc2c1	inconclusive: 1.83 µM [activator, partial curve]
CCN(CC)S(=O)(=O)c1ccc(NC(=O)CSc2cccc[n+]2[O-])cc1	inactive
CC(=O)Nc1cccc(NC(=O)CSc2nnc(NC(=O)c3ccco3)s2)c1	inconclusive: 29.1 µM [activator, single point]
COc1cc(OC)c(C(=O)NC23CC4CC(CC(C4)C2)C3)cc1OC	inconclusive: 14.1 µM [inhibitor, single point]
NNc1ccc(Cc2ccc(Cl)cc2Cl)nn1	inconclusive: 11.6 µM [inhibitor, partial curve, poor fit]
O=C(Nc1ccccc1F)c1ccc2nc(N3C(=O)CCC3=O)sc2c1	inconclusive: 14.6 µM [activator, partial curve]
COC(=O)c1nnn(CC(=O)NC(=O)Nc2cccc(Cl)c2C)c1C(=O)OC	inactive
CN(CC(=O)Nc1cccc(F)c1)C(=O)CCCn1c(=O)oc2ccccc21	inactive
COc1cc(/C=N/NC(=S)NCCN2CCOCC2)ccc1O	inconclusive: 16.4 µM [activator, single point]
CCOC(=O)c1cnc2nc(C)[nH]n2c1=O	inactive
COc1ccc(N(Cc2ccccc2)S(=O)(=O)c2cccc(C(=O)NCC3CCCO3)c2)cc1 (centres undefined)	inconclusive: 29.1 µM [inhibitor, single point]
COC(=O)N/N=C/c1cn(Cc2ccc(Cl)cc2Cl)c2ccccc12	inactive
Cn1c(=O)c2c(nc(CN3CCc4ccccc4C3)n2Cc2ccc(Cl)cc2)n(C)c1=O	inactive
COCCCn1c(SCC(=O)c2ccccc2)nc2ccccc2c1=O	inconclusive: 18.3 µM [inhibitor, single point]
O=C(CNC(=O)c1ccc(F)cc1)N/N=C/c1cccnc1	inconclusive: 20.6 µM [activator, partial curve, poor fit]
Cc1cc(NC(=O)COC(=O)c2cnccn2)ccc1Br	inconclusive: 4.11 µM [activator, partial curve]
Cc1ccc(NC(=O)COC(=O)C2CC2)cc1Cl	inconclusive: 29.1 µM [activator, partial curve, poor fit]
COc1ccccc1C1CCN(C(=O)c2ccccc2)CC1	inactive
CCc1nc2ccc(C(=O)Nc3cccc(C(C)=O)c3)cc2nc1CC	active: 18.4 µM
Cc1nc2c(C(=O)NCc3cccs3)cnn2c(C)c1Cc1ccc(F)cc1	inconclusive: 29.1 µM [inhibitor, single point]
Cc1nn(CC(=O)N2CCOCC2)c(=O)c2nn(-c3ccccc3)c(C)c12	inconclusive: 29.1 µM [activator, single point]
COc1ccc(-c2csc(NC(=O)CSc3ncn[nH]3)n2)cc1OC	inconclusive: 18.3 µM [inhibitor, partial curve, poor fit]

Not a retest: entries from further up.
SMILES	Potency
COc1ccc2nc(NC(=O)c3ccco3)sc2c1	inconclusive: 1.83 µM [activator, partial curve]
CCN(CC)S(=O)(=O)c1ccc(NC(=O)CSc2cccc[n+]2[O-])cc1	inactive
CC(=O)Nc1cccc(NC(=O)CSc2nnc(NC(=O)c3ccco3)s2)c1	inconclusive: 29.1 µM [activator, single point]

Next part.

SMILES	Potency
CC1(C)CC(=O)C2=C(C1)C(c1cn(-c3ccccc3)nc1-c1ccccc1)C(C#N)=C(N)O2 (centres undefined)	inconclusive: 16.4 µM [activator, partial curve]
CCOc1ccc(NC(=O)CC2SC(N)=NC2=O)c([N+](=O)[O-])c1 (centres undefined)	inconclusive: 25.9 µM [activator, single point]
COc1ccc(NC(=O)CSCC(=O)N(C)CCOc2ccc(Cl)cc2)cc1	inactive
CN(C)c1ccc(-n2cccc2/C=C/[N+](=O)[O-])cc1	inconclusive: 29.1 µM [inhibitor, single point]
O/C(=C\c1nc2ccccc2nc1/C=C(\O)c1ccccc1)c1ccccc1	inconclusive: 3.26 µM [activator, partial curve]
O=C(/C=C/c1ccccc1)N1CCOCC1	inconclusive: 29.1 µM [activator, single point]
Nc1ncc(N=Nc2cc(C(=O)O)ccc2Cl)s1	inconclusive: 18.3 µM [inhibitor, single point]
CCc1ccc(N2C(=O)C(Cl)=C(N3CCOCC3)C2=O)cc1	inactive
O=C(c1ccc2c(c1)OCCO2)C1CCN(C(=O)c2ccc(F)cc2)CC1	inconclusive: 20.6 µM [inhibitor, partial curve, poor fit]
O=C(CCCN1C(=O)/C(=C\c2cccs2)SC1=S)Nc1cccnc1	inactive
CCc1nc(SCC(=O)c2cccs2)c2oc3ccccc3c2n1	inconclusive: 25.9 µM [inhibitor, single point]
O=C(CCc1ccccc1)NC(=S)Nc1cccc(C(=O)O)c1	inconclusive: 5.17 µM [activator, full curve]
COc1ccc(Br)cc1/C=N/n1c(C)nc2ccccc2c1=O	inactive
Cc1ccc(C(C(=O)NCC2CCCO2)N(Cc2ccccc2)C(=O)c2ccc(-c3ccccc3)[nH]2)o1 (centres undefined)	active: 16.4 µM
COc1ccc(S(=O)(=O)Nc2nnc(Cc3ccc(OC)c(OC)c3)s2)cc1	inactive
O=C(CSc1nccn1-c1ncc(C(F)(F)F)cc1Cl)c1ccc(Br)cc1	inconclusive: 8.2 µM [activator, partial curve, poor fit]
CC(C)(C)c1ccc(NC(=O)c2ccc(=O)[nH]n2)cc1	inconclusive: 8.2 µM [activator, partial curve]
CC1CCN(CCCn2c(SCC(=O)Nc3ccccc3Cl)nc3ccccc3c2=O)CC1	inconclusive: 11.6 µM [activator, partial curve, poor fit]
COC(=O)c1ccccc1S(=O)(=O)Nc1ccc2cn[nH]c2c1	inactive
O=C(Nc1nnc(SCC(=O)N2CCOCC2)s1)c1ccccc1	inconclusive: 13 µM [activator, partial curve]
COc1ccccc1-c1nnc(-c2ccc(N3CCOCC3)cc2)o1	inconclusive: 6.51 µM [activator, single point]
COC(CN(C(=O)CCl)C(C(=O)NC1CCCCC1)c1ccccc1C)OC (centres undefined)	active: 23.1 µM
N#Cc1cccc(C(=O)Nc2cccc(S(=O)(=O)N3CCCC3)c2)c1	inactive
